In publication doi:10.1101/2025.06.16.659917:
These are yes or no findings as the source states them, for the method shown. For part of these data: Binding seen in cells or lysates may run through a third protein. Some binding calls cover weakened binding; strength is not graded here. For part of these data: Where a sequence is shown, tags or fusion partners need not be part of it.

The chains behind the UniProt entries cited, without tags or fusion partners.
UniProt P49336: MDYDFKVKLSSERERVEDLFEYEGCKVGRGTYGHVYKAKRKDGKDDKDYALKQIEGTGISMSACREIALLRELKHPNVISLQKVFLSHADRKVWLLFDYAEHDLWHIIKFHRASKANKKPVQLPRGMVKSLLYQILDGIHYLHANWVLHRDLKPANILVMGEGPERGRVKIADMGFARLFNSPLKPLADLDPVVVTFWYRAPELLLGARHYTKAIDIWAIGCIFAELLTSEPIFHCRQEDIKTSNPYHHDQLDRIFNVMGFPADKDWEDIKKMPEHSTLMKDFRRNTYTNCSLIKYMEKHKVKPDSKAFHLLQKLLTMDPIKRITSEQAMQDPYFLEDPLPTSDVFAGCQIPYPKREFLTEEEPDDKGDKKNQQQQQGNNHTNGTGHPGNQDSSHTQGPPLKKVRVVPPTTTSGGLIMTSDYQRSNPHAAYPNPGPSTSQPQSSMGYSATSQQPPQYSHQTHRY
UniProt P24863: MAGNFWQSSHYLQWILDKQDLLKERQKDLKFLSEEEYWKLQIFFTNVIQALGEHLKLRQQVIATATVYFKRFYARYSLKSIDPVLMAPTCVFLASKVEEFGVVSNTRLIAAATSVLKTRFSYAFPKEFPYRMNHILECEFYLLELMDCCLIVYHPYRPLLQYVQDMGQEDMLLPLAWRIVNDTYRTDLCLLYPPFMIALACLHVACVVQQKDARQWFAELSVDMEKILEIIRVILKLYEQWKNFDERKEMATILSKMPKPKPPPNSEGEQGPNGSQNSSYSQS

Legend:
[1] = target: Cdk8 (endogenous, Hela) (human (endogenous in Hela)) (UniProt P49336); assay: co-IP
[2] = target: CycC (recombinant, untagged) (human) (UniProt P24863); assay: cross-linking

B1: MTBP (endogenous, full-length) (protein, UniProt Q96DY7 1-904)
chain: MDRYLLLVIWGEGKFPSAASREAEHGPEVSSGEGTENQPDFTAANVYHLLKRSISASINPEDSTFPACSVGGIPGSKKWFFAVQAIYGFYQFCSSDWQEIHFDTEKDKIEDVLQTNIEECLGAVECFEEEDSNSRESLSLADLYEEAAENLHQLSDKLPAPGRAMVDIILLLSDKDPPKLKDYLPTVGALKHLREWYSAKITIAGNHCEINCQKIAEYLSANVVSLEDLRNVIDSKELWRGKIQIWERKFGFEISFPEFCLKGVTLKNFSTSNLNTDFLAKKIIPSKDKNILPKVFHYYGPALEFVQMIKLSDLPSCYMSDIEFELGLTNSTKQNSVLLLEQISSLCSKVGALFVLPCTISNILIPPPNQLSSRKWKEYIAKKPKTISVPDVEVKGECSSYYLLLQGNGNRRCKATLIHSANQINGSFALNLIHGKMKTKTEEAKLSFPFDLLSLPHFSGEQIVQREKQLANVQVLALEECLKRRKLAKQPETVSVAELKSLLVLTRKHFLDYFDAVIPKMILRKMDKIKTFNILNDFSPVEPNSSSLMETNPLEWPERHVLQNLETFEKTKQKMRTGSLPHSSEQLLGHKEGPRDSITLLDAKELLKYFTSDGLPIGDLQPLPIQKGEKTFVLTPELSPGKLQVLPFEKASVCHYHGIEYCLDDRKALERDGGFSELQSRLIRYETQTTCTRESFPVPTVLSPLPSPVVSSDPGSVPDGEVLQNELRTEVSRLKRRSKDLNCLYPRKRLVKSESSESLLSQTTGNSNHYHHHVTSRKPQTERSLPVTCPLVPIPSCETPKLATKTSSGQKSMHESKTSRQIKESRSQKHTRILKEVVTETLKKHSITETHECFTACSQRLFEISKFYLKDLKTSRGLFEEMKKTANNNAVQVIDWVLEKTSKK
- binding [1]: binds

B2: MTBP(C) (MTBP residues 516-904, C-terminal Strep-tag) (domain or fragment, UniProt Q96DY7 516-904)
chain: AVIPKMILRKMDKIKTFNILNDFSPVEPNSSSLMETNPLEWPERHVLQNLETFEKTKQKMRTGSLPHSSEQLLGHKEGPRDSITLLDAKELLKYFTSDGLPIGDLQPLPIQKGEKTFVLTPELSPGKLQVLPFEKASVCHYHGIEYCLDDRKALERDGGFSELQSRLIRYETQTTCTRESFPVPTVLSPLPSPVVSSDPGSVPDGEVLQNELRTEVSRLKRRSKDLNCLYPRKRLVKSESSESLLSQTTGNSNHYHHHVTSRKPQTERSLPVTCPLVPIPSCETPKLATKTSSGQKSMHESKTSRQIKESRSQKHTRILKEVVTETLKKHSITETHECFTACSQRLFEISKFYLKDLKTSRGLFEEMKKTANNNAVQVIDWVLEKTSKK
- binding [2]: binds

B3: Med12(N100) (recombinant Med12 residues 1-100) (domain or fragment, UniProt Q93074 1-100)
chain: MAAFGILSYEHRPLKRPRLGPPDVYPQDPKQKEDELTALNVKQGFNNQPAVSGDEHGSAKNVSFNPAKISSNFSSIIAEKLRCNTLPDTGRRKPQVNQKD
- binding [2]: binds
